Data from PMC9866728, “Dosing Methods to Enable Cell-Based In Vitro Testing of Complex Substances: A Case Study with a PAH Mixture” (Toxics, 2022).
Where two headings read alike, the source gives them in different places.

What was measured:
[1] = Loading kinetics of silicone micro-O-rings from methanol PAH solution (GC-MS/MS); assay type: physicochemical
[2] = ratio of PAH rate constant to that of naphthalene; ref Smith et al. 2010 [24]; cited from earlier work
[3] = ratio of PAH rate constant to that of naphthalene, this study

Structure (SMILES)	Kx/(KNaph) Value [1]	Kx/(KNaph) Value [1, 3]	Smith et al. 2010 Kx/(KNaph) Value [2]
Cc1cccc2ccccc12 [1-Methylnaphthalene]	0.7859		
Cc1ccc2ccccc2c1 [2-Methylnaphthalene]	0.7858		
c1cc2c3c(cccc3c1)CC2 [Acenaphthene]		0.6591	0.7563
C1=Cc2cccc3cccc1c23 [Acenaphthylene]		0.6696	
c1ccc2cc3ccccc3cc2c1 [Anthracene]		0.8025	0.7647
c1ccc2cc3c(ccc4ccccc43)cc2c1 [Benzo[a]anthracene]	0.004586		0.5798
c1ccc2c(c1)cc1ccc3cccc4ccc2c1c34 [Benzo[a]pyrene]			0.5546
c1ccc2c(c1)-c1cccc3c1c-2cc1ccccc13 [Benzo[b]fluoranthene]	0.8658		
c1cc2ccc3ccc4ccc5cccc6c(c1)c2c3c4c56 [Benzo[g,h,i]perylene]	1.574		
c1ccc2cc3c(cc2c1)-c1cccc2cccc-3c12 [Benzo[k]fluoranthene]		0.8799	
c1ccc(-c2ccccc2)cc1 [Biphenyl]	0.9737		
c1ccc2c(c1)ccc1c3ccccc3ccc21 [Chrysene]	0.004182		0.5756
c1ccc2c(c1)ccc1cc3c(ccc4ccccc43)cc12 [Dibenzo[a,h]anthracene]			0.4622
c1ccc2c(c1)-c1cccc3cccc-2c13 [Fluoranthene]		0.6891	0.5924
c1ccc2c(c1)Cc1ccccc1-2 [Fluorene]		0.7878	0.7941
c1ccc2c(c1)-c1ccc3ccc4cccc5cc-2c1c3c45 [Indeno[1,2,3-cd]pyrene]	1.238		
c1ccc2ccccc2c1 [Naphthalene]			1
c1cc2cccc3c4cccc5cccc(c(c1)c23)c54 [Perylene]	0.997		
c1ccc2c(c1)ccc1ccccc12 [Phenanthrene]		0.8755	0.6975
c1cc2ccc3cccc4ccc(c1)c2c34 [Pyrene]	0.654		0.5672
